Experimental data reported in patent US4189499A, “Lysine 4-allyloxy-3-chlorophenylacetate and method of its preparation” (priority 1979, dated 1980).

Test: Extent of availability after different routes, intravenous administration as reference
Type: in vivo, rabbit
Conditions: comparison of lysine salt with acid
Procedure: The following pharmacological experimentation was carried out in order to estimate the comparative absorption and bioavailability through various administration routes in rabbits of Alclofenac acid and its lysine salt.

With `C=CCOc1ccc(CC(=O)O)cc1Cl` [Alclofenac-Lysine, lysine 4-allyloxy-3-chlorophenylacetate] the “F Lys. vs acid (AUC o → 4h)” value (P.O. 90 mg/kg, 0-4 h) was < 0.01 and the “F Lys. vs acid (AUC o → 2h)” value (Rectal 100 mg/kg, 0-2 h) was “ns”.
